From publication PMC4378997

Sequences of proteins named here, by UniProt entry; tags and fusion partners are left off.
UniProt Q03018: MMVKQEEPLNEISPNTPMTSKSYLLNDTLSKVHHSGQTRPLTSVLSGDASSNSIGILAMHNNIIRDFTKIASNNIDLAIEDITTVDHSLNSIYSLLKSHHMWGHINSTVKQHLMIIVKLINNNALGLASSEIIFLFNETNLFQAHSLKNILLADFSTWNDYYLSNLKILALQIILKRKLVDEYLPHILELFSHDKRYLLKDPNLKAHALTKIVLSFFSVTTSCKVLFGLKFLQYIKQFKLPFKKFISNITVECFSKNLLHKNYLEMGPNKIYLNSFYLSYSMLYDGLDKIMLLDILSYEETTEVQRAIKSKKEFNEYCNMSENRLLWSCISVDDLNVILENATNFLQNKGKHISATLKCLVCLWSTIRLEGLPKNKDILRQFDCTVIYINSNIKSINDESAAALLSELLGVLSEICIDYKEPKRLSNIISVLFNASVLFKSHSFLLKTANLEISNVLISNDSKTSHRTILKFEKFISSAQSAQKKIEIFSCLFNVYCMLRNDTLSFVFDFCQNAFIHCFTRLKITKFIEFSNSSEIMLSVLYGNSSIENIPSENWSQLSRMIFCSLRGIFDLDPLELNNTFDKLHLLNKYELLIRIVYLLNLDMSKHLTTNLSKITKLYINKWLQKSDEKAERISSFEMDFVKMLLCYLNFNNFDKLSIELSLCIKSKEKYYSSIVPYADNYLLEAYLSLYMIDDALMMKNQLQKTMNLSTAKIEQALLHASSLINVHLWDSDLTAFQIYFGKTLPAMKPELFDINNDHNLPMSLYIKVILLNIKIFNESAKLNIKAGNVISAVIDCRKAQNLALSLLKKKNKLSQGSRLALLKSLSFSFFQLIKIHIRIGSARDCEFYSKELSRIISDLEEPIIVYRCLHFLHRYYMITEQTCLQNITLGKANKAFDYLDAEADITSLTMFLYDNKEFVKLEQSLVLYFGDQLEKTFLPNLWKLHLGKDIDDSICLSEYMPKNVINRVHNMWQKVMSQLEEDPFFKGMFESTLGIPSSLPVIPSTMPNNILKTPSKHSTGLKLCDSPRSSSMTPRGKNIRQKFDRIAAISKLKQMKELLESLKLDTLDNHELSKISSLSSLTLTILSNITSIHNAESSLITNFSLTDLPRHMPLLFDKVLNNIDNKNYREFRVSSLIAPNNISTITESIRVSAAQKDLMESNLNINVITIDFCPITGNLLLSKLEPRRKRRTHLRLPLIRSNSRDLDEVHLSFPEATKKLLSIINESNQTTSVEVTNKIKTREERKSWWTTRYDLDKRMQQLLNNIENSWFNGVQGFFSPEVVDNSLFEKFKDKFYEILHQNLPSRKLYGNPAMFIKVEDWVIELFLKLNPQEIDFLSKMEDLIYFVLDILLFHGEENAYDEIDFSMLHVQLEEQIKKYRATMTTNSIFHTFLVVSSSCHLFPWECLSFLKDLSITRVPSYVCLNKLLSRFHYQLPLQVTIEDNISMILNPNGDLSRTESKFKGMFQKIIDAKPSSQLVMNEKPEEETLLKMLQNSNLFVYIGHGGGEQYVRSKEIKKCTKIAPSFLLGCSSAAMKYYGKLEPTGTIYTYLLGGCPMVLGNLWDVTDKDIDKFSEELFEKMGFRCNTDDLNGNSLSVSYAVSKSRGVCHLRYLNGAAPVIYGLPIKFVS

B1: Pds1/securin (endogenous) (protein, UniProt P40316 1-373)
chain: MMPANEDKENNIVYTGNESSGINFPQTPAHLLKRSHSNILKPPVRLDQLKRDANSNNGNTLKYIQGGKEVSPTKRLHTHAQQQGRLPLAAKDNNRSKSFIFPETSNQSKDADLPQLQNTLSIRKNDQLRKLSQISRSRSRANHNDLLSNSRKLQKYGSVLGYNALPKMKSLVLKDLADSGKNEESSDDDEGNEDSESKLGKKLQSALLKQDSSDGENELNGGLGLFNEQGGLQQLIKNSTKNEQKTKNDKSDKTDDYDIEIAPQRQEPLPYVPEGYSPFQQDDIEKLKTFNSPYKLDLEDEDDTPDKVDLLPLEQIDEEGEKDETECITRNQEEGAALPLLSKNFKEVAAVPTMELVYSEEGLDPEELEDLVT
B2: Spf1 (protein, UniProt P39986 1-1215)
chain: MTKKSFVSSPIVRDSTLLVPKSLIAKPYVLPFFPLYATFAQLYFQQYDRYIKGPEWTFVYLGTLVSLNILVMLMPAWNVKIKAKFNYSTTKNVNEATHILIYTTPNNGSDGIVEIQRVTEAGSLQTFFQFQKKRFLWHENEQVFSSPKFLVDESPKIGDFQKCKGHSGDLTHLKRLYGENSFDIPIPTFMELFKEHAVAPLFVFQVFCVALWLLDEFWYYSLFNLFMIISMEAAAVFQRLTALKEFRTMGIKPYTINVFRNKKWVALQTNELLPMDLVSITRTAEESAIPCDLILLDGSAIVNEAMLSGESTPLLKESIKLRPSEDNLQLDGVDKIAVLHGGTKALQVTPPEHKSDIPPPPDGGALAIVTKTGFETSQGSLVRVMIYSAERVSVDNKEALMFILFLLIFAVIASWYVWVEGTKMGRIQSKLILDCILIITSVVPPELPMELTMAVNSSLAALAKFYVYCTEPFRIPFAGRIDVCCFDKTGTLTGEDLVFEGLAGISADSENIRHLYSAAEAPESTILVIGAAHALVKLEDGDIVGDPMEKATLKAVGWAVERKNSNYREGTGKLDIIRRFQFSSALKRSASIASHNDALFAAVKGAPETIRERLSDIPKNYDEIYKSFTRSGSRVLALASKSLPKMSQSKIDDLNRDDVESELTFNGFLIFHCPLKDDAIETIKMLNESSHRSIMITGDNPLTAVHVAKEVGIVFGETLILDRAGKSDDNQLLFRDVEETVSIPFDPSKDTFDHSKLFDRYDIAVTGYALNALEGHSQLRDLLRHTWVYARVSPSQKEFLLNTLKDMGYQTLMCGDGTNDVGALKQAHVGIALLNGTEEGLKKLGEQRRLEGMKMMYIKQTEFMARWNQPQPPVPEPIAHLFPPGPKNPHYLKALESKGTVITPEIRKAVEEANSKPVEVIKPNGLSEKKPADLASLLLNSAGDAQGDEAPALKLGDASCAAPFTSKLANVSAVTNIIRQGRCALVNTIQMYKILALNCLISAYSLSIIYMAGVKFGDGQATVSGLLLSVCFLSISRGKPLEKLSKQRPQSGIFNVYIMGSILSQFAVHIATLVYITTEIYKLEPREPQVDLEKEFAPSLLNTGIFIIQLVQQVSTFAVNYQGEPFRENIRSNKGMYYGLLGVTGLALASATEFLPELNEAMKFVPMTDDFKIKLTLTLLLDFFGSWGVEHFFKFFFMDDKPSDISVQQVKIASK
B3: Spt6 (protein, UniProt P23615 1-1451)
chain: MEETGDSKLVPRDEEEIVNDNDETKAPSEEEEGEDVFDSSEEDEDIDEDEDEARKVQEGFIVNDDDENEDPGTSISKKRRKHKRREREEDDRLSEDDLDLLMENAGVERTKASSSSGKFKRLKRVGDEGNAAESESDNVAASRQDSTSKLEDFFSEDEEEEESGLRNGRNNEYGRDEEDHENRNRTADKGGILDELDDFIEDDEFSDEDDETRQRRIQEKKLLREQSIKQPTQITGLSSDKIDEMYDIFGDGHDYDWALEIENEELENGNDNNEAEEEEIDEETGAIKSTKKKISLQDIYDLEDLKKNLMTEGDMKIRKTDIPERYQELRAGITDYGNMSSEDQELERNWIAEKISVDKNFDANYDLTEFKEAIGNAIKFITKENLEVPFIYAYRRNYISSREKDGFLLTEDDLWDIVSLDIEFHSLVNKKDYVQRFYAELHIDDPIVTEYFKNQNTASIAELNSLQDIYDYLEFKYANEINEMFINHTGKTGKKHLKNSSYEKFKASPLYQAVSDIGISAEDVGENISSQHQIHPPVDHPSSKPVEVIESILNANSGDLQVFTSNTKLAIDTVQKYYSLELSKNTKIREKVRSDFSKYYLADVVLTAKGKKEIQKGSLYEDIKYAINRTPMHFRRDPDVFLKMVEAESLNLLSVKLHMSSQAQYIEHLFQIALETTNTSDIAIEWNNFRKLAFNQAMDKIFQDISQEVKDNLTKNCQKLVAKTVRHKFMTKLDQAPFIPNVRDPKIPKILSLTCGQGRFGADAIIAVYVNRKGDFIRDYKIVDNPFDKTNPEKFEDTLDNIIQSCQPNAIGINGPNPKTQKFYKRLQEVLHKKQIVDSRGHTIPIIYVEDEVAIRYQNSERAAQEFPNKPPLVKYCIALARYMHSPLLEYANLTSEEVRSLSIHPHQNLLSSEQLSWALETAFVDIVNLVSVEVNKATDNNYYASALKYISGFGKRKAIDFLQSLQRLNEPLLARQQLITHNILHKTIFMNSAGFLYISWNEKRQKYEDLEHDQLDSTRIHPEDYHLATKVAADALEYDPDTIAEKEEQGTMSEFIELLREDPDRRAKLESLNLESYAEELEKNTGLRKLNNLNTIVLELLDGFEELRNDFHPLQGDEIFQSLTGESEKTFFKGSIIPVRVERFWHNDIICTTNSEVECVVNAQRHAGAQLRRPANEIYEIGKTYPAKVIYIDYANITAEVSLLDHDVKQQYVPISYSKDPSIWDLKQELEDAEEERKLMMAEARAKRTHRVINHPYYFPFNGRQAEDYLRSKERGEFVIRQSSRGDDHLVITWKLDKDLFQHIDIQELEKENPLALGKVLIVDNQKYNDLDQIIVEYLQNKVRLLNEMTSSEKFKSGTKKDVVKFIEDYSRVNPNKSVYYFSLNHDNPGWFYLMFKINANSKLYTWNVKLTNTGYFLVNYNYPSVIQLCNGFKTLLKSNSSKNRMNNYR
B4: Zuo1 (protein, UniProt P32527 1-433)
chain: MFSLPTLTSDITVEVNSSATKTPFVRRPVEPVGKFFLQHAQRTLRNHTWSEFERIEAEKNVKTVDESNVDPDELLFDTELADEDLLTHDARDWKTADLYAAMGLSKLRFRATESQIIKAHRKQVVKYHPDKQSAAGGSLDQDGFFKIIQKAFETLTDSNKRAQYDSCDFVADVPPPKKGTDYDFYEAWGPVFEAEARFSKKTPIPSLGNKDSSKKEVEQFYAFWHRFDSWRTFEFLDEDVPDDSSNRDHKRYIERKNKAARDKKKTADNARLVKLVERAVSEDPRIKMFKEEEKKEKERRKWEREAGARAEAEAKAKAEAEAKAKAESEAKANASAKADKKKAKEAAKAAKKKNKRAIRNSAKEADYFGDADKATTIDEQVGLIVDSLNDEELVSTADKIKANAAGAKEVLKESAKTIVDSGKLPSSLLSYFV
B5: Iki3 (protein, UniProt Q06706 1-1349)
chain: MVEHDKSGSKRQELRSNMRNLITLNKGKFKPTASTAEGDEDDLSFTLLDSVFDTLSDSITCVLGSTDIGAIEVQQFMKDGSRNVLASFNIQTFDDKLLSFVHFADINQLVFVFEQGDIITATYDPVSLDPAETLIEIMGTIDNGIAAAQWSYDEETLAMVTKDRNVVVLSKLFEPISEYHLEVDDLKISKHVTVGWGKKETQFRGKGARAMEREALASLKASGLVGNQLRDPTMPYMVDTGDVTALDSHEITISWRGDCDYFAVSSVEEVPDEDDETKSIKRRAFRVFSREGQLDSASEPVTGMEHQLSWKPQGSLIASIQRKTDLGEEDSVDVIFFERNGLRHGEFDTRLPLDEKVESVCWNSNSEALAVVLANRIQLWTSKNYHWYLKQELYASDISYVKWHPEKDFTLMFSDAGFINIVDFAYKMAQGPTLEPFDNGTSLVVDGRTVNITPLALANVPPPMYYRDFETPGNVLDVACSFSNEIYAAINKDVLIFAAVPSIEEMKKGKHPSIVCEFPKSEFTSEVDSLRQVAFINDSIVGVLLDTDNLSRIALLDIQDITQPTLITIVEVYDKIVLLRSDFDYNHLVYETRDGTVCQLDAEGQLMEITKFPQLVRDFRVKRVHNTSAEDDDNWSAESSELVAFGITNNGKLFANQVLLASAVTSLEITDSFLLFTTAQHNLQFVHLNSTDFKPLPLVEEGVEDERVRAIERGSILVSVIPSKSSVVLQATRGNLETIYPRIMVLAEVRKNIMAKRYKEAFIVCRTHRINLDILHDYAPELFIENLEVFINQIGRVDYLNLFISCLSEDDVTKTKYKETLYSGISKSFGMEPAPLTEMQIYMKKKMFDPKTSKVNKICDAVLNVLLSNPEYKKKYLQTIITAYASQNPQNLSAALKLISELENSEEKDSCVTYLCFLQDVNVVYKSALSLYDVSLALLVAQKSQMDPREYLPFLQELQDNEPLRRKFLIDDYLGNYEKALEHLSEIDKDGNVSEEVIDYVESHDLYKHGLALYRYDSEKQNVIYNIYAKHLSSNQMYTDAAVAYEMLGKLKEAMGAYQSAKRWREAMSIAVQKFPEEVESVAEELISSLTFEHRYVDAADIQLEYLDNVKEAVALYCKAYRYDIASLVAIKAKKDELLEEVVDPGLGEGFGIIAELLADCKGQINSQLRRLRELRAKKEENPYAFYGQETEQADDVSVAPSETSTQESFFTRYTGKTGGTAKTGASRRTAKNKRREERKRARGKKGTIYEEEYLVQSVGRLIERLNQTKPDAVRVVEGLCRRNMREQAHQIQKNFVEVLDLLKANVKEIYSISEKDRERVNENGEVYYIPEIPVPEIHDFPKSHIVDF
B6: Mck1 (protein, UniProt P21965 1-375)
chain: MSTEEQNGVPLQRGSEFIADDVTSNKSNNTRRMLVKEYRKIGRGAFGTVVQAYLTQDKKNWLGPFAIKKVPAHTEYKSRELQILRIADHPNIVKLQYFFTHLSPQDNKVYQHLAMECLPETLQIEINRYVTNKLEMPLKHIRLYTYQIARGMLYLHGLGVCHRDIKPSNVLVDPETGVLKICDFGSAKKLEHNQPSISYICSRFYRAPELIIGCTQYTTQIDIWGLGCVMGEMLIGKAIFQGQEPLLQLREIAKLLGPPDKRFIFFSNPAYDGPLFSKPLFSGSSQQRFEKYFGHSGPDGIDLLMKILVYEPQQRLSPRRILAHQFFNELRNDDTFLPRGFTEPIKLPNLFDFNDFELQILGEFADKIKPTKVAE
B7: Mrt4 (protein, UniProt P33201 1-236)
chain: MPRSKRSKLVTLAQTDKKGRENKERIFDEVREALDTYRYVWVLHLDDVRTPVLQEIRTSWAGSKLIMGKRKVLQKALGEKREEEYKENLYQLSKLCSGVTGLLFTDEDVNTVKEYFKSYVRSDYSRPNTKAPLTFTIPEGIVYSRGGQIPAEEDVPMIHSLEPTMRNKFEIPTKIKAGKITIDSPYLVCTEGEKLDVRQALILKQFGIAASEFKVKVSAYYDNDSSTVESTNINME

Molecular target: 13Myc-tagged Esp1 (S. cerevisiae) (UniProt Q03018)
Experiment: affinity purification with mass spectrometry; one-step IP of Esp1-13Myc from lysate of logarithmically growing yeast with 9E10 anti-Myc antibody cross-linked to Sepharose, 4 h at 4°C, washes with 500mM NaCl; compared by spectral counting with a mock IP from an untagged strain

Binder	binding
B1	binds
B2	binds
B3	binds
B4	binds
B5	binds
B6	binds
B7	binds

Results are given in words; binding and its absence hold for the method and conditions named. In cells and extracts the contact can be indirect. These calls come from enrichment with a bait or labelling near it, and not all partners need be listed.
